Laboratory results as given in publication PMC12766925, “Functional assembly of the Qc-SNARE with Sec18 and Sec17 on membranes” (Molecular Biology of the Cell, 2025).
These are yes or no findings as the source states them, for the method shown. Binding can be weak; no strength is given.

Target: the three soluble Q-SNAREs (yeast (Saccharomyces Genome Database ids))
Assay: liposome floatation (density gradient) with immunoblot; protein-free VML liposomes, 2 µM Sec17 and 2 µM soluble SNAREs as indicated, Rb150, 0.04% defatted BSA, 1 mM MgCl2, 27°C 1 h; floated through Histodenz; Sec17 on liposomes by Western blot; both purified

B1: Sec17 (natural protein, UniProt P32602 1-292, looked up)
chain: MSDPVELLKRAEKKGVPSSGFMKLFSGSDSYKFEEAADLCVQAATIYRLRKELNLAGDSFLKAADYQKKAGNEDEAGNTYVEAYKCFKSGGNSVNAVDSLENAIQIFTHRGQFRRGANFKFELGEILENDLHDYAKAIDCYELAGEWYAQDQSVALSNKCFIKCADLKALDGQYIEASDIYSKLIKSSMGNRLSQWSLKDYFLKKGLCQLAATDAVAAARTLQEGQSEDPNFADSRESNFLKSLIDAVNEGDSEQLSEHCKEFDNFMRLDKWKITILNKIKESIQQQEDDLL
notes: Sec17, yeast, YBL050W; Plasmid from Schwartz and Merz, 2009; also called Sec17/SNAP; wild-type Sec17; source: E. coli Rosetta2(DE3), purified (chitin resin, DTT cleavage, dialysed into Rb150)
Q: How did the binding turn out when B1 was run?
A: binds
